For one experiment, the target named is T1, HA-RGCC (UniProt Q9H4X1).
T1 sequence: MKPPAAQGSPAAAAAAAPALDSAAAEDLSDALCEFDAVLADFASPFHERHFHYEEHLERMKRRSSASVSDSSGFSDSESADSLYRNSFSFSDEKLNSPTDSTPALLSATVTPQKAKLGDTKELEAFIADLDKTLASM
Put plainly: co-IP; HA-RGCC and FLAG-PLK1 truncation fragments in 293T cells.

Protein sequences, listed by entry. Tags and fused reporters are not part of them. Lines headed by an entry give the natural chain unless they say otherwise; changes in a name come on top.
UniProt P53350: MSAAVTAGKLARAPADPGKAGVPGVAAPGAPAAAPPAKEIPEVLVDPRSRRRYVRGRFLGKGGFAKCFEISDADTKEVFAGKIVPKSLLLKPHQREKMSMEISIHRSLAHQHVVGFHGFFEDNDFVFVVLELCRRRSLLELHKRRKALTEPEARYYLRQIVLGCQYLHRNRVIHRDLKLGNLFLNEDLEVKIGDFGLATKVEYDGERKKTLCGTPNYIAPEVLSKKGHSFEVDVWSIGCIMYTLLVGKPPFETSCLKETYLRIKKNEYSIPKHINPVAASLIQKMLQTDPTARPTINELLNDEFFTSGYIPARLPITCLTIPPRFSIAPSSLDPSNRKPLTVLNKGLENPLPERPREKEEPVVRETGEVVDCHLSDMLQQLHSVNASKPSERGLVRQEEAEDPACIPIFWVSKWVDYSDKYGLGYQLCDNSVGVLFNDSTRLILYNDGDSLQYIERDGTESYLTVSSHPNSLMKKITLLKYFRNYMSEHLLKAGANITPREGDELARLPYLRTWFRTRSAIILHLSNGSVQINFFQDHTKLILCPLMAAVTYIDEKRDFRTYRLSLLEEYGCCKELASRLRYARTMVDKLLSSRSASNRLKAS
UniProt Q07832: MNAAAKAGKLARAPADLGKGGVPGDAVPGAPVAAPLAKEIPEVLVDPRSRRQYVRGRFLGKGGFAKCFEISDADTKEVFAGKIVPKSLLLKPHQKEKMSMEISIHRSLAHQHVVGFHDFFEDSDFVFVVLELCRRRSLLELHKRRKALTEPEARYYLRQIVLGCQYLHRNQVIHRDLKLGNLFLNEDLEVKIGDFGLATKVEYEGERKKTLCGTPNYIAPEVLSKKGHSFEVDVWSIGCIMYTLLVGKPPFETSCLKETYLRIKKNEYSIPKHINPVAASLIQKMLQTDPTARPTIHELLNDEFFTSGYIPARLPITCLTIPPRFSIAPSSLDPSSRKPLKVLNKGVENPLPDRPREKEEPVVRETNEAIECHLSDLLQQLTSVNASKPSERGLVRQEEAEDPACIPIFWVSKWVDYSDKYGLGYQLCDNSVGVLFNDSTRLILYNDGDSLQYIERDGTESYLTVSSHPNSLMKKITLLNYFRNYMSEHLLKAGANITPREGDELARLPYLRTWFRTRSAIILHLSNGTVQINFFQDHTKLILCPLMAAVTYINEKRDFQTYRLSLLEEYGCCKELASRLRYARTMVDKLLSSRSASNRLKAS

Experiment [1] concerns the target T2, RGCC (4T1/LM3 cells) (mouse (endogenous in 4T1/LM3)) (UniProt Q9DBX1).
T2 sequence: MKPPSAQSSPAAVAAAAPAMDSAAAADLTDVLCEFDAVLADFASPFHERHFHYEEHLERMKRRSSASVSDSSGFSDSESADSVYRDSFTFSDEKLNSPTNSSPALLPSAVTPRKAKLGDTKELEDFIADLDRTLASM
Nature of the experiment: co-IP; endogenous proteins; NP40 lysate; magnetic protein A/G beads; anti-RGCC or anti-PLK1 for precipitation; western blot.

The next experiment has as its target T3, GST-RGCC (UniProt Q9H4X1).
T3 sequence: T1 sequence
Nature of the experiment: pull-down; purified GST-RGCC (or GST) incubated with recombinant HA-PLK1 4 h at 4 °C, then glutathione-Sepharose 4B beads 2 h at 4 °C; washed in NP-40 buffer (50 mM Tris-HCl pH 7.4, 1% NP-40, 150 mM NaCl, 2 mM EDTA, 1 mM DTT, 10% glycerol); western blot; both purified.

The target in experiment [2] is T4, Response gene to complement 32 protein (RGCC) (human (endogenous in MDA-MB-231/LM3)) (UniProt Q9H4X1).
T4 sequence: T1 sequence
Put plainly: co-IP; endogenous proteins; NP40 lysate; magnetic protein A/G beads; anti-RGCC or anti-PLK1 for precipitation; western blot. A general note: Immunoblotting shows a protein as a band on a membrane.

No constants are given. Whether binding was seen depends on the method and setting. For some of these results: In cells and extracts the contact can be indirect. Some entries that bind do so weakly or less than the wild type. For some of these results: Sequences can lack the tags named with a protein.

As for “FLAG-PLK1 (231–340) (from UniProt P53350 231-340) (domain or fragment)”, the binding entry in the experiment with HA-RGCC was “binds weakly”.

For “PLK1 (4T1/LM3 cells) (from UniProt Q07832 1-603)”, the binding result in experiment [1] was “binds”. “FLAG-PLK1 (341–490) (from UniProt P53350 341-490) (domain or fragment)”: the binding result with HA-RGCC is recorded as “binds”. For the substance HA-PLK1 (from UniProt P53350 1-603), the binding result in the experiment with GST-RGCC was “binds”.

Turning to PLK1 (from UniProt P53350 1-603), in experiment [2], the binding result is listed as “binds”.

“FLAG-PLK1 (491–603) (from UniProt P53350 491-603) (domain or fragment)”: the binding result in the experiment with HA-RGCC was “binds weakly”. Take “FLAG-PLK1 (1–190) (from UniProt P53350 1-190) (domain or fragment)”: the binding result in the experiment with HA-RGCC was “binds”.

(Values after article PMC10722681, “RGCC-mediated PLK1 activity drives breast cancer lung metastasis by phosphorylating AMPKα2 to activate oxidative phosphorylation and fatty acid oxidation” (Journal of Experimental & Clinical Cancer Research : CR, 2023).)
